This passage reports binding results from article PMC6882185.

Protein sequences, listed by entry. Tags and fused reporters are not part of them. Residues count along the entry.
UniProt P46531, residues 19-2555: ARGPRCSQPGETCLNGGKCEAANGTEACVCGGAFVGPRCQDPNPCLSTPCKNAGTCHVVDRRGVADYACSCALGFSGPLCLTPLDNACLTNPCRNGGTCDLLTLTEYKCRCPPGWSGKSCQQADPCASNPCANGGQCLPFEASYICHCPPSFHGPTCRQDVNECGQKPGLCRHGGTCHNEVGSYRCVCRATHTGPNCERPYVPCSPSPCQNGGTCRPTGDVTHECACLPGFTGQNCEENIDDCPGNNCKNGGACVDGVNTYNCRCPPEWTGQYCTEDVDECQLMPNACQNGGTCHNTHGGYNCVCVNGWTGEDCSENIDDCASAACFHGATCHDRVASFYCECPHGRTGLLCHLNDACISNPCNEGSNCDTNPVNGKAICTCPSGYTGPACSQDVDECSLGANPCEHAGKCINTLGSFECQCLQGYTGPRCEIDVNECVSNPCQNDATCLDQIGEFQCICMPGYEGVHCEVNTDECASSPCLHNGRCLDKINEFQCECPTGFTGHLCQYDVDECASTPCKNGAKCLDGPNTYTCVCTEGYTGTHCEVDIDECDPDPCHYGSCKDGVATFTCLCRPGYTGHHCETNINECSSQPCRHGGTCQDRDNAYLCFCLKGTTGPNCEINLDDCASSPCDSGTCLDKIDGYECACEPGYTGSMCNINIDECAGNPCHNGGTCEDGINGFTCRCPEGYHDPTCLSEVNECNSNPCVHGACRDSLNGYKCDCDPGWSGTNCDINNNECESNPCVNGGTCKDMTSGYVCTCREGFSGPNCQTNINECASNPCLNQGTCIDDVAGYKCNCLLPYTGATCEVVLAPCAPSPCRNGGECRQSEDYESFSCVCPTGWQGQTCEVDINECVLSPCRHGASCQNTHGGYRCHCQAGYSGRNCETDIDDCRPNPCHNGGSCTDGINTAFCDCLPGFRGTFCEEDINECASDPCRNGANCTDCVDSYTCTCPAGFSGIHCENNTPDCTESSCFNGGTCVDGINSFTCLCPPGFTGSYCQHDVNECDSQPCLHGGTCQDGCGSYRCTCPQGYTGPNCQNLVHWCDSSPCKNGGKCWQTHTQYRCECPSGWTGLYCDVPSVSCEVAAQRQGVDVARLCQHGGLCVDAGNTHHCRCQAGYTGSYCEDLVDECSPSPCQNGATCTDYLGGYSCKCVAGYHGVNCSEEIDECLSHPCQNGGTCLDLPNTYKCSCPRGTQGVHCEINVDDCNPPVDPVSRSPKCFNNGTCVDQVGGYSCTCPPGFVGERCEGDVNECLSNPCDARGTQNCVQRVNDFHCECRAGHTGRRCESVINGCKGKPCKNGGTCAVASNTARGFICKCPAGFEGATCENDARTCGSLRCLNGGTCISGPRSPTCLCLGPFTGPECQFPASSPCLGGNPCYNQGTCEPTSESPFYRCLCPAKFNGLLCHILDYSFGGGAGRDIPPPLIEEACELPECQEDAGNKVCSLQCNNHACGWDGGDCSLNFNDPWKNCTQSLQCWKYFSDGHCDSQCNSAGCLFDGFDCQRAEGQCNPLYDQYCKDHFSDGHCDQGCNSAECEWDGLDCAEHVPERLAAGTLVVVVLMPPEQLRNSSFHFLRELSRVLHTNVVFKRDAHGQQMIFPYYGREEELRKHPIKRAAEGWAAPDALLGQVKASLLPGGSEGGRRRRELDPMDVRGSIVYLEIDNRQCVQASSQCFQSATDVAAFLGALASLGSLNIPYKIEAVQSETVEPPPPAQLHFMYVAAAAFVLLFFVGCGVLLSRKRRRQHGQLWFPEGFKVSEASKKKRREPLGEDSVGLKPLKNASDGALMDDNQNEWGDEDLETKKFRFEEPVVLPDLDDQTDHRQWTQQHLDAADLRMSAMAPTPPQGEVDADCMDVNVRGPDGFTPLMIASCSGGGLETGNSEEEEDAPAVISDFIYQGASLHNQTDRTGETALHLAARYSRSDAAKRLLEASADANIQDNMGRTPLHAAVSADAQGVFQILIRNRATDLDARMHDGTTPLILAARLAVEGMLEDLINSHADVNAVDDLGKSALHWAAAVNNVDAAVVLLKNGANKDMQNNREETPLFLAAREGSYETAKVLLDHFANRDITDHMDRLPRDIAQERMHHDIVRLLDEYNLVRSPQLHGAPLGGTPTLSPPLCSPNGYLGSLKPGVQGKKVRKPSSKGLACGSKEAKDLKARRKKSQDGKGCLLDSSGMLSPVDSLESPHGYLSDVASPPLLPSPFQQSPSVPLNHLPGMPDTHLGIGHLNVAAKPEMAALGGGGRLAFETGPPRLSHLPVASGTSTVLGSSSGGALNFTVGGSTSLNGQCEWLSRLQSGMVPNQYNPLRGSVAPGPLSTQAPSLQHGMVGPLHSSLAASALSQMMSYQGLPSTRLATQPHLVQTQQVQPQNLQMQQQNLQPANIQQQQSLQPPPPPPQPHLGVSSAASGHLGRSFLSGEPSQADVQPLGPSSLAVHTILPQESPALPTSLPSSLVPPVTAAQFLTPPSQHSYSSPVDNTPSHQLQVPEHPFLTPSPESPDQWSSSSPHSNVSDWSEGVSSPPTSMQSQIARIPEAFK

Results are given in words; binding and its absence hold for the method and conditions named. In cells and extracts the contact can be indirect. Some entries that bind do so weakly or less than the wild type.

The assay deals with NOTCH1 receptor (human (endogenous in RBE and SSP-25)) (UniProt P46531). The experiment in a line: co-IP; lysates of RBE and SSP-25 cells (Pierce lysis buffer, protease inhibitors) incubated with NOTCH1 antibody, MFAP5 antibody or control IgG, then Protein A/G Dynabeads; eluate analysed by Western blot. For orientation: In western blotting, separated proteins are transferred to a membrane and probed.

B1: Microfibrillar-associated protein 5 (protein, UniProt Q13361 22-173)
chain: IPLGVNSQRGDDVTQATPETFTEDPNLVNDPATDETVLAVLADIAPSTDDLASLSEKNTTAECWDEKFTCTRLYSVHRPVKQCIHQLCFTSLRRMYIVNKEICSRLVCKEHEAMKDELCRQMAGLPPRRLRRSNYFRLPPCENVDLQRPNGL
With B1, the binding entry is “binds”.
